Some of the results follow. The main result of the screen is listed elsewhere. These columns were measured beside it and carry no call. The list favours compounds with an active or inconclusive main result. The note in brackets gives the kind of curve behind each potency; many fits are weak.
Test: qHTS Assay for Modulators of Lamin A Splicing
Conditions: HeLa LMNA splicing GFP/RFP minigene ratio, 48 h
Procedure, shortened: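 S3 HeLa stable clones carrying a lamin A-EGFP splicing minigene plus DsRed2 were seeded at 600 cells/well in Opti-MEM with 2% FBS, pin-dosed and incubated 48 h at 37°C. Acumen cytometry (488 nm) gave the GFP/RFP total-intensity ratio.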

[1] = measured here: GFP splicing reporter channel
[2] = measured here: RFP viability control channel

For `CCN(CC)C1=CC(=[N+]2CCCC2)CC(C)(C)C1`, the AC50 [1] was 2.51 µM [rising, full curve] and the AC50 [2] was 7.08 µM [rising, partial curve].
With `COc1ccccc1Nc1sc(C(=O)c2ccc(C)cc2C)c(N)c1S(=O)(=O)c1ccccc1` the AC50 [2] was 1.78 µM [rising, full curve, poor fit].
In the case of `Cc1ccc(SCCC(=O)OCn2nnc3ccccc3c2=O)cc1`, the AC50 [2] is reported as 20 µM [rising, partial curve, poor fit].
For `COC(=O)c1c(CSc2ccc(C)c(C)c2)noc1C(=O)NCc1ccc(OC)cc1`, the AC50 [1] was 11.2 µM [rising, single point] and the AC50 [2] was 31.6 µM [rising, single point].
With `NC(=O)c1sc2nc(N3CCCCC3)c3c(c2c1N)CCCC3` the AC50 [1] was 35.5 µM [rising, single point].
With `CCn1c(SCC(=O)N2CCCCC2C)nc2ccsc2c1=O` (stereo not drawn) the AC50 [1] was 12.6 µM [rising, single point] and the AC50 [2] was 14.1 µM [rising, single point].
With `CNC(=O)CCCN1C(=O)c2cccnc2Sc2ccccc21` the AC50 [2] was 0.00501 µM [falling, full curve, poor fit].
With `Cc1csc(NC(=O)CCS(=O)(=O)c2ccc(Br)cc2)n1` the AC50 [2] was 3.55 µM [rising, single point].
With `CCOc1cc(C(=O)NCCc2sc(-c3ccc(F)cc3)nc2C)cc(OCC)c1OCC` the AC50 [1] was 3.16 µM [falling, full curve, poor fit] and the AC50 [2] was 0.501 µM [falling, full curve, poor fit].
In the case of `CC(C)=CCOc1c2ccoc2cc2oc(=O)ccc12`, the AC50 [2] is reported as 31.6 µM [rising, single point].
With `O=S(=O)(NCCc1csc(-c2ccccc2)n1)c1ccc2c(c1)OCCO2` the AC50 [2] was 35.5 µM [rising, single point].
With `COc1ccc(NC(=O)CCCC2CCCCC2)cc1S(=O)(=O)N1CCCCC1` the AC50 [1] was 12.6 µM [rising, partial curve, poor fit] and the AC50 [2] was 22.4 µM [rising, partial curve].
For `Cc1ccsc1CN1CCc2nc(Nc3ccccc3)ncc2C1`, the AC50 [1] was 31.6 µM [falling, single point].
In the case of `CCOc1ccc(NS(=O)(=O)c2ccc(NC(=O)C3CCCO3)cc2)cc1` (stereo not drawn), the AC50 [2] is reported as 31.6 µM [rising, single point].
In the case of `O=C(COC(=O)c1ccccc1Cc1ccccc1)Nc1ccc(SC(F)F)cc1`, the AC50 [1] is reported as 12.6 µM [rising, single point] and the AC50 [2] is reported as 15.8 µM [rising, partial curve].
In the case of `CCc1nnc(NC(=O)CCC(=O)N2CCN(CCOc3ccc(C)cc3)CC2)s1`, the AC50 [1] is reported as 15.8 µM [rising, partial curve] and the AC50 [2] is reported as 20 µM [rising, single point].
In the case of `Cc1ccc(-c2cnc3cc(C)nn3c2)cc1`, the AC50 [2] is reported as 0.501 µM [falling, full curve, poor fit].
For `O=C(/C=C/c1ccc(Cl)cc1Cl)c1ccc[nH]1`, the AC50 [2] was 35.5 µM [falling, single point].
For `CC(Sc1nncn1C)C(=O)Nc1ccc(S(N)(=O)=O)cc1` (stereo not drawn), the AC50 [1] was 0.0282 µM [rising, full curve, poor fit].
With `Cc1cc(C(=O)CN2C(=O)C(=O)N(Cc3ccccc3)C2=O)c(C)n1-c1ccccc1F` the AC50 [2] was 5.62 µM [rising, full curve, poor fit].
In the case of `S=C(Nc1ccc(N2CCOCC2)cc1)Nc1ccc2snnc2c1`, the AC50 [1] is reported as 0.112 µM [rising, full curve, poor fit].
For `CC(=O)C1=C(C)N(Cc2ccccc2)C(=O)N[C@H]1c1cccc(F)c1`, the AC50 [1] was 0.794 µM [rising, partial curve].
In the case of `COc1ccc(COCC(O)CN2CCC(CN3C(=O)c4cccc5cccc(c45)C3=O)CC2)cc1OC` (stereo not drawn), the AC50 [1] is reported as 14.1 µM [rising, partial curve, poor fit] and the AC50 [2] is reported as 35.5 µM [rising, partial curve].
With `c1ccc(Sc2ncnc3c2oc2ccccc23)nc1` the AC50 [2] was 20 µM [rising, single point].
For `COc1ccc(CNC(=O)c2cc3c(=O)n(Cc4ccco4)ccc3nc2C)cc1`, the AC50 [1] was 2.82 µM [rising, full curve] and the AC50 [2] was 4.47 µM [rising, partial curve].
With `CN1CCC(OC(c2ccccc2)c2ccccc2)CC1` the AC50 [1] was 0.001 µM [falling, full curve, poor fit].
In the case of `Brc1ccc2nc(-c3c[nH]c4ccccc34)cn2c1`, the AC50 [1] is reported as 0.00447 µM [falling, full curve, poor fit].
For `Cc1cc(C)c(NC(=O)CCS(=O)(=O)c2cc3c(cc2Cl)NC(=O)CO3)c(C)c1`, the AC50 [1] was 3.55 µM [rising, partial curve].
For `O=C(N/N=C\c1cc(Br)ccc1O)c1ccc(S(=O)(=O)N2CCCCC2)cc1`, the AC50 [2] was 12.6 µM [rising, partial curve].
With `O=[N+]([O-])c1c(C(Cl)Cl)nn(-c2ccc(Cl)cc2)c1N1CCCCC1` the AC50 [1] was 5.62 µM [falling, single point] and the AC50 [2] was 4.47 µM [falling, single point].
With `CCCOc1cc(C)c(S(=O)(=O)N2CCOCC2)cc1C` the AC50 [1] was 25.1 µM [rising, partial curve, poor fit].
For `Cc1ccc(Cc2c(C)nc3nc(SCC(=O)NC4CCC(C)CC4)nn3c2C)cc1` (stereo not drawn), the AC50 [1] was 12.6 µM [falling, partial curve, poor fit] and the AC50 [2] was 22.4 µM [falling, partial curve, poor fit].
For `C=CCNC(=S)Nc1ccc2nsnc2c1`, the AC50 [1] was 3.16 µM [rising, partial curve] and the AC50 [2] was 11.2 µM [rising, partial curve].
With `CCOC(=O)c1ccc2c(c1)N(CC(=O)N(C)c1ccccc1)C(=O)c1ccccc1S2` the AC50 [2] was 10 µM [rising, single point].
In the case of `S=C1NC2=C(CCC/C2=C\c2ccccc2)C(c2ccccc2)N1` (stereo not drawn), the AC50 [1] is reported as 15.8 µM [rising, single point].
In the case of `O=C(Nc1ccc(Cl)c(Cl)c1)N1CCSC1c1ccco1` (stereo not drawn), the AC50 [1] is reported as 0.316 µM [rising, full curve, poor fit] and the AC50 [2] is reported as 25.1 µM [rising, single point].
For `CCOc1ccccc1OCCOCCOc1ccccc1[N+](=O)[O-]`, the AC50 [1] was 11.2 µM [rising, partial curve] and the AC50 [2] was 20 µM [rising, partial curve, poor fit].
For `CS(=O)(=O)N(CC(O)Cn1c2ccccc2c2ccccc21)c1ccccc1` (stereo not drawn), the AC50 [2] was 8.91 µM [rising, single point].
With `N#C/C(=C\C1CC=CCC1)c1nc2ccccc2[nH]1` (stereo not drawn) the AC50 [1] was 0.708 µM [falling, single point].
For `COc1cc(Nc2nc(SCC(=O)c3ccc(Br)cc3)nc3ccccc23)cc(OC)c1`, the AC50 [2] was 5.01 µM [falling, partial curve].
For `Cc1ccc(C(=O)/C=C/c2ccccc2[N+](=O)[O-])cc1`, the AC50 [1] was 35.5 µM [falling, single point].
In the case of `Cc1cccc(NC(=S)N/N=C2\CC(C)(C)Oc3ccc(O)cc32)c1`, the AC50 [1] is reported as 12.6 µM [rising, single point] and the AC50 [2] is reported as 12.6 µM [rising, partial curve].
For `Cc1ccc(NC(=O)C2C(c3ccccc3)C2(Cl)Cl)c(C)c1` (stereo not drawn), the AC50 [2] was 14.1 µM [rising, single point].
For `CCCCCCn1c(NCC)nc2c1c(=O)n(C)c(=O)n2C`, the AC50 [2] was 2.51 µM [rising, full curve].
In the case of `CC(Oc1ccccc1)C(=O)NNS(=O)(=O)c1ccc([N+](=O)[O-])cc1` (stereo not drawn), the AC50 [2] is reported as 3.98 µM [falling, full curve, poor fit].
With `CSc1ccc(S(=O)(=O)N(C)Cc2ccccc2)cc1` the AC50 [2] was 1 µM [rising, full curve, poor fit].
With `CCOc1ccc(-n2cc(-c3ccccc3)c3c(N4CCOCC4)ncnc32)cc1` the AC50 [1] was 11.2 µM [falling, partial curve] and the AC50 [2] was 31.6 µM [falling, single point].
In the case of `COc1ccc(NC(=O)N(Cc2cc3cc(OC)c(OC)cc3[nH]c2=O)CC2CCCO2)cc1` (stereo not drawn), the AC50 [1] is reported as 3.98 µM [falling, full curve, poor fit].
In the case of `CN(C)C1=NCC(CSC(=N)N)S1` (stereo not drawn), the AC50 [2] is reported as 31.6 µM [rising, single point].
In the case of `Cc1c(C(=O)NCc2cccc(Cl)c2)sc2ncnc(N(C)C3CCCCC3)c12`, the AC50 [2] is reported as 0.0158 µM [rising, full curve, poor fit].
For `Cc1ccc(SCc2nc(-c3cccnc3)no2)cc1`, the AC50 [1] was 17.8 µM [falling, partial curve] and the AC50 [2] was 20 µM [falling, partial curve].
With `O=C(N/N=C/c1cn(-c2cccs2)nc1-c1ccccc1)c1ccccc1O` the AC50 [1] was 5.62 µM [rising, partial curve] and the AC50 [2] was 10 µM [rising, partial curve].
In the case of `C=C(C(=O)c1ccccc1)C(c1ccccc1)C(C)C(=O)c1ccccc1` (stereo not drawn), the AC50 [1] is reported as 35.5 µM [falling, single point] and the AC50 [2] is reported as 35.5 µM [falling, single point].
In the case of `O=C(Cn1c(=O)nc(-c2ccccc2)c2ccccc21)Nc1cccc(C(F)(F)F)c1`, the AC50 [1] is reported as 35.5 µM [falling, single point] and the AC50 [2] is reported as 35.5 µM [falling, partial curve, poor fit].
For `Cc1ccc(N2CCN(/N=C/c3sccc3C)CC2)cc1`, the AC50 [2] was 25.1 µM [rising, single point].
With `O=C(O)c1ccc(CNC(=S)Nc2ccccc2)cc1` the AC50 [1] was 0.00631 µM [rising, full curve, poor fit].
With `COc1ccccc1Oc1ccc2c(c1)C(=O)N(c1ccc(Br)c3cccnc13)C2=O` the AC50 [1] was 10 µM [rising, partial curve] and the AC50 [2] was 17.8 µM [rising, single point].
